# Assay results from PubChem BioAssay AID248 (DTP/NCI, 2004).
# The list does not hold the whole screen: it gathers tests that were run many times, whatever their T/C, doses with no T/C, and many T/C values between a quarter and a half above the control. Other doses and runs of a compound stand elsewhere. T/C is the treated group as % of the vehicle group. Some entries give survivors of the animals treated and no T/C: the source files T/C as zero there, which appears to mark a toxic dose or a test without result, not a measured value. Some doses without a T/C left all or most animals alive at the check, yet need not have been tolerated: survival well below the control is almost never listed, so the zero probably covers shortened survival too. Survivors were counted at the toxicity check, usually on the fifth day, unless a day is given; later deaths do not show. Schedule codes are those of the source, read here as Q, the interval in days (D) or hours (H), X, the number of doses. Some schedules carry Z or #; the key to these is not given. Some entries were tested several times; their values stand side by side, smallest first. For survival time, this PubChem deposit counts one and a half times the control or more as active, and values a quarter to a half above the control carry no call in these data; other NCI protocols may use other cut-offs.
# System: L1210 leukemia ip in BDF1 mice, survival T/C
# Assay: NCI In Vivo Anticancer Drug Screen. Data for tumor model L1210 Leukemia (intraperitoneal) in B6D2F1 (BDF1) mice
# Settings: T/C endpoint: mean survival time, higher T/C = longer survival
# [1] = dose: 100.0 mg/kg/injection, schedule: Q01DX009 (ip), vehicle: saline
# [2] = dose: 200.0 mg/kg/injection, schedule: Q01DX001 (ip), vehicle: saline
# [3] = dose: 400.0 mg/kg/injection, schedule: Q01DX001 (ip), vehicle: saline
# [4] = dose: 100.0 mg/kg/injection, schedule: Q01DX001 (ip), vehicle: saline
# [5] = dose: 400.0 mg/kg/injection, schedule: Q04DX002 (ip), vehicle: saline with Tween-80
# [6] = dose: 300.0 mg/kg/injection, schedule: Q01DX001 (ip), vehicle: saline
# [7] = dose: 100.0 mg/kg/injection, schedule: Q01DX009 (ip), vehicle: saline with Tween-80
# [8] = dose: 200.0 mg/kg/injection, schedule: Q01DX009 (ip), vehicle: saline with Tween-80
# [9] = dose: 400.0 mg/kg/injection, schedule: Q01DX009 (ip), vehicle: saline with Tween-80
# [10] = dose: 400.0 mg/kg/injection, schedule: Q01DX009 (ip), vehicle: Klucel (hydroxypropylcellulose) (HPC)
# [11] = dose: 200.0 mg/kg/injection, schedule: Q01DX009 (ip), vehicle: saline
# [12] = dose: 400.0 mg/kg/injection, schedule: Q01DX009 (ip), vehicle: saline
# [13] = dose: 400.0 mg/kg/injection, schedule: Q04DX002 (ip), vehicle: Klucel (hydroxypropylcellulose) (HPC)
smiles,measurement,setting,value
Nc1nc(Nc2ccc(C3=NCCN3)cc2)nc(Nc2ccc(C3=NCCN3)cc2)n1,T/C,"dose: 7.5 mg/kg/injection, schedule: Q01DX Z (ip), vehicle: methylcellulose (MC)",125 % of control
same,T/C,"dose: 16.5 mg/kg/injection, schedule: Q01DX009 (ip), vehicle: saline",128 % of control
same,T/C,"dose: 25.0 mg/kg/injection, schedule: Q01DX009 (ip), vehicle: saline",143 % of control
same,T/C,"dose: 30.0 mg/kg/injection, schedule: Q01DX Z (ip), vehicle: methylcellulose (MC)",128 % of control
same,survivor count,"dose: 60.0 mg/kg/injection, schedule: Q01DX Z (ip), vehicle: methylcellulose (MC)",0 of 6
same,survivor count,[1],0 of 6
same,survivor count,"dose: 120.0 mg/kg/injection, schedule: Q01DX Z (ip), vehicle: methylcellulose (MC)",0 of 6
same,survivor count,[2],2 of 6
same,survivor count,[3],0 of 6
Cc1cc(C)c2c(C#N)cn(-c3cccc([N+](=O)[O-])c3)c2n1,survivor count,[4],3 of 3
same,survivor count,[3],0 of 3
CCOC(CCC#N)c1ccc(C)cc1 (configuration not stated),survivor count,"dose: 470.0 mg/kg/injection, schedule: Q01DX009 (ip), vehicle: saline with Tween-80",5 of 6
CC(=O)OC(C)(C)/C=C/C(=O)C(C)(O)C1C(O)CC2(C)C3CC=C4C(C=C(OC5OC(CO)C(O)C(O)C5O)C(=O)C4(C)C)C3(C)C(=O)CC12C (configuration not stated),survivor count,"dose: 200.0 mg/kg/injection, schedule: Q04DX002 (ip), vehicle: saline with Tween-80",2 of 3
same,survivor count,[5],1 of 3
CC(=O)C(C#N)c1c(C)cc(C)cc1C (configuration not stated),survivor count,[6],2 of 6
COc1cc(/C=N/NC(=O)c2ccccc2Cl)ccc1O,survivor count,[7],3 of 3
same,survivor count,[8],3 of 3
CC(=O)Nc1cccc(Br)c1,survivor count,"dose: 50.0 mg/kg/injection, schedule: Q01DX009 (ip), vehicle: Klucel (hydroxypropylcellulose) (HPC)",3 of 3
C[N+](C)(C)C1(Cc2ccccc2)c2ccccc2-c2ccccc21,survivor count,[1],1 of 6
same,survivor count,"dose: 200.0 mg/kg/injection, schedule: Q04DX003 (ip), vehicle: saline with Tween-80",0 of 6
same,survivor count,"dose: 400.0 mg/kg/injection, schedule: Q04DX003 (ip), vehicle: saline with Tween-80",0 of 6
c1ccc(P(=NC2CCCCC2)(c2ccccc2)c2ccccc2)cc1,survivor count,"dose: 200.0 mg/kg/injection, schedule: Q04DX003 (ip), vehicle: acetone",3 of 6
Cc1cc(Cl)nc2c1ccn2C1OC(CO)C(O)C1O (configuration not stated),survivor count,"dose: 50.0 mg/kg/injection, schedule: Q01DX005 (ip), vehicle: other",3 of 3
same,survivor count,"dose: 100.0 mg/kg/injection, schedule: Q01DX005 (ip), vehicle: other",2 of 3
same,survivor count,"dose: 200.0 mg/kg/injection, schedule: Q01DX005 (ip), vehicle: other",3 of 3
Cc1cc(C(=O)O)c(C)c2c1sc1ccccc12,survivor count,[3],2 of 4
Cc1ccc(S(=O)(=O)N/N=C(/c2ccccc2)c2cccs2)cc1,survivor count,[9],6 of 6
CC1(C)C[n+]2noc([O-])c2C(C)(C)C1,survivor count,"dose: 2.3 mg/kg/injection, schedule: Q01DX009 (ip), vehicle: alcohol",2 of 6
same,survivor count,"dose: 3.12 mg/kg/injection, schedule: Q04DX003 (ip), vehicle: alcohol",5 of 6
same,survivor count,"dose: 3.5 mg/kg/injection, schedule: Q01DX009 (ip), vehicle: alcohol",1 of 6
same,survivor count,"dose: 5.2 mg/kg/injection, schedule: Q01DX009 (ip), vehicle: alcohol",0 of 6
same,survivor count,"dose: 6.25 mg/kg/injection, schedule: Q04DX003 (ip), vehicle: alcohol",0 of 6
same,survivor count,"dose: 12.5 mg/kg/injection, schedule: Q04DX003 (ip), vehicle: alcohol",0 of 6
same,survivor count,"dose: 25.0 mg/kg/injection, schedule: Q04DX003 (ip), vehicle: alcohol",0 of 6
same,survivor count,"dose: 50.0 mg/kg/injection, schedule: Q04DX003 (ip), vehicle: alcohol",0 of 6
same,survivor count,"dose: 100.0 mg/kg/injection, schedule: Q04DX003 (ip), vehicle: alcohol",0 of 6
same,survivor count,"dose: 200.0 mg/kg/injection, schedule: Q04DX003 (ip), vehicle: alcohol",0 of 6
same,survivor count,"dose: 400.0 mg/kg/injection, schedule: Q04DX003 (ip), vehicle: alcohol",0 of 6
Cc1ccc(Cl)c(NC(=O)Nc2ccccc2Cl)c1,survivor count,"dose: 200.0 mg/kg/injection, schedule: Q01DX009 (ip), vehicle: Klucel (hydroxypropylcellulose) (HPC)",6 of 6
Cc1cc2nc(NC(=O)C3CC3)sc2cc1C,survivor count,[10],6 of 6
CCn1c(N)c(N=O)c(=O)[nH]c1=O,survivor count,"dose: 400.0 mg/kg/injection, schedule: Q01DX009 (ip), vehicle: gum acacia",1 of 6
O=C(O)CCC(=O)c1cccc([N+](=O)[O-])c1,survivor count,[10],6 of 6
Cc1ccc(N(CCO)CCO)cc1,survivor count,[2],0 of 4
same,survivor count,[3],0 of 4
COc1ccc(Cl)cc1NC(=O)C(Br)C(Br)C(=O)O (configuration not stated),survivor count,"dose: 400.0 mg/kg/injection, schedule: Q01DX009 (ip), vehicle: other",3 of 6
S=C([S-])N1CCCCC1.S=C([S-])N1CCCCC1.[Zn],survivor count,"dose: 150.0 mg/kg/injection, schedule: Q01DX001 (ip), vehicle: saline",1 of 6
same,survivor count,[6],0 of 6
CCC[CH2][Sn]([CH2]CCC)([O][Sn]([CH2]CCC)([CH2]CCC)[S]C#N)[S]C#N,survivor count,"dose: 25.0 mg/kg/injection, schedule: Q01DX009 (ip), vehicle: saline with Tween-80",0 of 3
same,survivor count,"dose: 50.0 mg/kg/injection, schedule: Q01DX009 (ip), vehicle: saline with Tween-80",0 of 3
same,survivor count,[7],0 of 3 and 0 of 6
same,survivor count,[8],0 of 6
same,survivor count,[9],0 of 6
C[CH2][Ge]1([CH2]C)[CH2]C(C)=C(C)[CH2]1,survivor count,[5],0 of 3
C=CCN(CC=C)CC=C,survivor count,[1],6 of 6
same,survivor count,[11],2 of 6
same,survivor count,[12],0 of 6
Cc1c(Cl)cccc1NC(=O)NCCC(C)C,survivor count,[8],6 of 6
O=N[O-].O=N[O-].[Co].[NH-]CC[N-]CC[N-]CC[NH-],survivor count,[4],0 of 4
same,survivor count,[2],0 of 4
same,survivor count,[3],0 of 4
CN(C)CCOC(=O)c1ccccc1CBr,survivor count,"dose: 87.5 mg/kg/injection, schedule: Q01DX009 (ip), vehicle: saline",0 of 6
same,survivor count,"dose: 175.0 mg/kg/injection, schedule: Q01DX009 (ip), vehicle: saline",0 of 6
same,survivor count,"dose: 350.0 mg/kg/injection, schedule: Q01DX009 (ip), vehicle: saline",0 of 6
NCCc1ccc2c(c1)OCO2,survivor count,[11],2 of 6
same,survivor count,[12],0 of 6
same,survivor count,"dose: 400.0 mg/kg/injection, schedule: Q04DX003 (ip), vehicle: saline",1 of 6
CCCCC(CC)CC1CCCCC1O (configuration not stated),survivor count,[10],3 of 6
Nc1c(Cl)nc(Cl)nc1C(F)(F)F,survivor count,"dose: 66.0 mg/kg/injection, schedule: Q01DX Z (ip), vehicle: methylcellulose (MC)",5 of 6
same,survivor count,"dose: 100.0 mg/kg/injection, schedule: Q01DX Z (ip), vehicle: methylcellulose (MC)",3 of 6
NNC(=O)CNc1ccc(F)cc1,survivor count,[13],1 of 3
CC(=O)OC(C(O)C=O)C(O)C(O)CO (configuration not stated) (tested in a mixture with another compound),survivor count,[13],3 of 3
O=c1ccc2c(Cl)cc(CN(CCO)CCO)cc2[nH]1,survivor count,"dose: 300.0 mg/kg/injection, schedule: Q04DX003 (ip), vehicle: saline",0 of 6
